Consider 3 molecules from paper PMC8881609.

Chains of the proteins cited; added tags and fusions are not shown. Lines headed by an entry give the natural chain unless they say otherwise; changes in a name come on top.
UniProt Q8R0K2: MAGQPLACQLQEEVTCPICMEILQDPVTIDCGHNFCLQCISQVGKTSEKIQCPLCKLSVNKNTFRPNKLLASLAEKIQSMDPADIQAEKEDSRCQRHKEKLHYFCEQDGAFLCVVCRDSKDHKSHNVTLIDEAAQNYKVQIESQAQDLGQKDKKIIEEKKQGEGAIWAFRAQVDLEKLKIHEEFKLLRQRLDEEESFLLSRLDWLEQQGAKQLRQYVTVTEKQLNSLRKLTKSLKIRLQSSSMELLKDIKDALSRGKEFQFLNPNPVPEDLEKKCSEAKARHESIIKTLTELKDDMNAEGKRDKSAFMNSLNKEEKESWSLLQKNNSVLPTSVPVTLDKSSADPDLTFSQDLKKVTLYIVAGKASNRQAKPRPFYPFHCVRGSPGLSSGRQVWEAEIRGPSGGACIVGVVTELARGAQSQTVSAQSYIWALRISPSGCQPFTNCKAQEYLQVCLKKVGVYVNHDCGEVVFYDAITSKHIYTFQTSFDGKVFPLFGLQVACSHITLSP

Results are given in words; binding and its absence hold for the method and conditions named. Binding seen in cells or lysates may run through a third protein. For part of these data: Binding can be weak; no strength is given. Sequences can lack the tags named with a protein.

For experiment [1], the target named is T1, TRIM31-Flag WT (human tripartite motif-containing protein 31, E3 ubiquitin ligase) (human) (UniProt Q9BZY9).
T1 sequence: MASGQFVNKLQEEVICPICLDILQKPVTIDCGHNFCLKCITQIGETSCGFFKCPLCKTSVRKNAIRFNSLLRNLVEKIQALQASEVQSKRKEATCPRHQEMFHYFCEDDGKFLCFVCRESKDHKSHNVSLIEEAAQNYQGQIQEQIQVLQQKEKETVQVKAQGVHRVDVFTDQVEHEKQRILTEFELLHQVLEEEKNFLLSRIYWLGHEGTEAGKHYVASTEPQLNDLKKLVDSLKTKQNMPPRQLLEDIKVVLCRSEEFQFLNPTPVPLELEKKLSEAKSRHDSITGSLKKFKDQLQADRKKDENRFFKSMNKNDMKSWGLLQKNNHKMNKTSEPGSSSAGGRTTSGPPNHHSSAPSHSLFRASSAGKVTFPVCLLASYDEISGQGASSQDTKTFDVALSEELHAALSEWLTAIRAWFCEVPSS
The experiment in a line: co-IP; L02 cells transiently transfected with Flag- and HA-tagged vectors, 36 h; Pierce IP Lysis Buffer at 4 °C; Protein A/G magnetic agarose beads, indicated antibodies at 4 °C overnight; blots probed with anti-Flag or anti-HA.

Experiment [2] concerns the target mouse Trim31-Flag CC^Δ (CC domain deletion) (mouse) (UniProt Q8R0K2). The experiment in a line: co-IP; transfected mouse hepatocytes; mouse Trim31-Flag and Rhbdf2-HA vectors (wild type, CC^Δ, Tail^Δ).
Experiment [3] concerns the target TRIM31-Flag RING^Δ (RING-finger domain ablation mutant) (human) (UniProt Q9BZY9). The experiment is described as follows: co-IP; L02 cells transiently transfected with Flag- and HA-tagged vectors, 36 h; Pierce IP Lysis Buffer at 4 °C; Protein A/G magnetic agarose beads, indicated antibodies at 4 °C overnight; blots probed with anti-Flag or anti-HA.

“RHBDF2-HA Tail^Δ (N-terminal cytoplasmic tail domain deletion mutant) (from UniProt Q6PJF5) (domain or fragment)”: in experiment [1], the binding entry is “no binding”.

B1: mouse Rhbdf2-HA wild type (protein, UniProt Q80WQ6 1-827)
chain: MASADKNGSNLPSVSGSRLQSRKPPNLSITIPPPESQAPGEQDSMLPERRKNPAYLKSVSLQEPRGRWQEGAEKRPGFRRQASLSQSIRKSTAQWFGVSGDWEGKRQNWHRRSLHHCSVHYGRLKASCQRELELPSQEVPSFQGTESPKPCKMPKIVDPLARGRAFRHPDEVDRPHAAHPPLTPGVLSLTSFTSVRSGYSHLPRRKRISVAHMSFQAAAALLKGRSVLDATGQRCRHVKRSFAYPSFLEEDAVDGADTFDSSFFSKEEMSSMPDDVFESPPLSASYFRGVPHSASPVSPDGVHIPLKEYSGGRALGPGTQRGKRIASKVKHFAFDRKKRHYGLGVVGNWLNRSYRRSISSTVQRQLESFDSHRPYFTYWLTFVHIIITLLVICTYGIAPVGFAQHVTTQLVLKNRGVYESVKYIQQENFWIGPSSIDLIHLGAKFSPCIRKDQQIEQLVRRERDIERTSGCCVQNDRSGCIQTLKKDCSETLATFVKWQNDTGPSDKSDLSQKQPSAVVCHQDPRTCEEPASSGAHIWPDDITKWPICTEQAQSNHTGLLHIDCKIKGRPCCIGTKGSCEITTREYCEFMHGYFHEDATLCSQVHCLDKVCGLLPFLNPEVPDQFYRIWLSLFLHAGIVHCLVSVVFQMTILRDLEKLAGWHRISIIFILSGITGNLASAIFLPYRAEVGPAGSQFGLLACLFVELFQSWQLLERPWKAFFNLSAIVLFLFICGLLPWIDNIAHIFGFLSGMLLAFAFLPYITFGTSDKYRKRALILVSLLVFAGLFASLVLWLYIYPINWPWIEYLTCFPFTSRFCEKYELDQVLH
Regarding B1, in experiment [2], the binding entry is “no binding”.

B2: RHBDF2-HA WT (human rhomboid 5 homolog 2) (protein, UniProt Q6PJF5 1-856)
chain: MASADKNGGSVSSVSSSRLQSRKPPNLSITIPPPEKETQAPGEQDSMLPEGFQNRRLKKSQPRTWAAHTTACPPSFLPKRKNPAYLKSVSLQEPRSRWQESSEKRPGFRRQASLSQSIRKGAAQWFGVSGDWEGQRQQWQRRSLHHCSMRYGRLKASCQRDLELPSQEAPSFQGTESPKPCKMPKIVDPLARGRAFRHPEEMDRPHAPHPPLTPGVLSLTSFTSVRSGYSHLPRRKRMSVAHMSLQAAAALLKGRSVLDATGQRCRVVKRSFAFPSFLEEDVVDGADTFDSSFFSKEEMSSMPDDVFESPPLSASYFRGIPHSASPVSPDGVQIPLKEYGRAPVPGPRRGKRIASKVKHFAFDRKKRHYGLGVVGNWLNRSYRRSISSTVQRQLESFDSHRPYFTYWLTFVHVIITLLVICTYGIAPVGFAQHVTTQLVLRNKGVYESVKYIQQENFWVGPSSIDLIHLGAKFSPCIRKDGQIEQLVLRERDLERDSGCCVQNDHSGCIQTQRKDCSETLATFVKWQDDTGPPMDKSDLGQKRTSGAVCHQDPRTCEEPASSGAHIWPDDITKWPICTEQARSNHTGFLHMDCEIKGRPCCIGTKGSCEITTREYCEFMHGYFHEEATLCSQVHCLDKVCGLLPFLNPEVPDQFYRLWLSLFLHAGVVHCLVSVVFQMTILRDLEKLAGWHRIAIIFILSGITGNLASAIFLPYRAEVGPAGSQFGLLACLFVELFQSWPLLERPWKAFLNLSAIVLFLFICGLLPWIDNIAHIFGFLSGLLLAFAFLPYITFGTSDKYRKRALILVSLLAFAGLFAALVLWLYIYPINWPWIEHLTCFPFTSRFCEKYELDQVLH
B2: the binding result in experiment [3] was “binds”.
